Screening data, single-dose tests

The chains behind the UniProt entries cited, without tags or fusion partners. Residues count along the entry.
UniProt A4I591, 1-473: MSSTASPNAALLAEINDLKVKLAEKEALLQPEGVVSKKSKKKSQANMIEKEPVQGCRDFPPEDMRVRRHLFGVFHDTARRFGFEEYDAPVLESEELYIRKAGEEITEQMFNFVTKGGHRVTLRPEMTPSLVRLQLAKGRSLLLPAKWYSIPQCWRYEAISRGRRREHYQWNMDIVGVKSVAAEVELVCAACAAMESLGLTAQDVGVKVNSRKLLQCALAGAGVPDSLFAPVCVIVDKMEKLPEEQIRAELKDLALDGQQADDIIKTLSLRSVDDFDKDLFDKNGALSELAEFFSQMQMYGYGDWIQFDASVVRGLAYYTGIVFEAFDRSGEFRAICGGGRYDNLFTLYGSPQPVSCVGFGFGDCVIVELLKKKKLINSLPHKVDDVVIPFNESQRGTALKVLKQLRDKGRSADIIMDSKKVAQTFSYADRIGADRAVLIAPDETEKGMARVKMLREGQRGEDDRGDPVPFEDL
UniProt P9WNZ1, whole entry: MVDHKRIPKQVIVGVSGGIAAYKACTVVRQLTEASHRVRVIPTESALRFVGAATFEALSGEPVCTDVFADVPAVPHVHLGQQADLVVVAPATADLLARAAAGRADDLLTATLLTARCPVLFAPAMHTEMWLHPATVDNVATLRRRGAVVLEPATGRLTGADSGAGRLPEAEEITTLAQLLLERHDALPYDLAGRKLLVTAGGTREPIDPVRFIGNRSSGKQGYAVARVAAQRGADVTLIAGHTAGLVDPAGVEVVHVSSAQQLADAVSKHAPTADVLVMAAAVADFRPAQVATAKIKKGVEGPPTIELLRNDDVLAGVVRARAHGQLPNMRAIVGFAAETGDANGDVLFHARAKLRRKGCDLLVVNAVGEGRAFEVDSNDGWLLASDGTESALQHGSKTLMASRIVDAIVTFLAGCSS
UniProt Q8IDJ8, 1-583: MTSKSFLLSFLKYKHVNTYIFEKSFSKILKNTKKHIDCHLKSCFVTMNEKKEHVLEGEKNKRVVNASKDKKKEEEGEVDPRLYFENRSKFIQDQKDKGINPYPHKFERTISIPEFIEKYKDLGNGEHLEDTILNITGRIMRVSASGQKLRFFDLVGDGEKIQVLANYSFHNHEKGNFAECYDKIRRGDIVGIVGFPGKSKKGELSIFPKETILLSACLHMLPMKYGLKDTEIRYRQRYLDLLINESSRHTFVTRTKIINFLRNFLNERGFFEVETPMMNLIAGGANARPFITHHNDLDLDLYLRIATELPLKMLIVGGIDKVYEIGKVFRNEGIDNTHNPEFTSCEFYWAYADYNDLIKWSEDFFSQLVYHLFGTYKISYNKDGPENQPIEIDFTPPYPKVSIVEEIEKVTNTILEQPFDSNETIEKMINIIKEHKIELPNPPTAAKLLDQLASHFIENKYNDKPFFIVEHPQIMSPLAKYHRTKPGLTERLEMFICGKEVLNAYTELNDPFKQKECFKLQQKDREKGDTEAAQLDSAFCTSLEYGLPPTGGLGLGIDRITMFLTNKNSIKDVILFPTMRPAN
UniProt P9WFT3, whole entry: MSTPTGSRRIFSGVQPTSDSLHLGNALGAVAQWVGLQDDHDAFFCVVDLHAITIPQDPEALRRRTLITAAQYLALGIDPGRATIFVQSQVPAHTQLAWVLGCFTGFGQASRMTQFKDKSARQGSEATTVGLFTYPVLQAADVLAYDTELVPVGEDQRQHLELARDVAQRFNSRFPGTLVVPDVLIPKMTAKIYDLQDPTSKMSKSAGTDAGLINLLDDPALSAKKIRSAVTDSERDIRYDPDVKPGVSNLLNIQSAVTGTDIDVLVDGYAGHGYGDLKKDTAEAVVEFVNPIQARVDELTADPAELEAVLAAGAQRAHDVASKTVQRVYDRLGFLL

Measurements from “University of Dundee, Small-Polar-MMV Screening Library” (2021), ChEMBL document CHEMBL3988442.

LiHisRS: 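Enzyme assay of histidyl-tRNA synthetase; the read-out is not stated. Target: Histidine-tRNA ligase, Leishmania infantum (UniProt A4I591). Tested at 30 µM. The record gives no direction; compounds that gave an IC50 in retests scored well above the rest, so higher reads as stronger inhibition. The assay is labelled LdHisRS but filed under L. infantum. Size under these conditions: about 69,000 compounds, about 410 of them at 50% or above in at least one test.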
CoaBC: 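Coenzyme A biosynthesis protein CoaBC, Mycobacterium tuberculosis (UniProt P9WNZ1). Enzyme assay of CoaBC with a phosphate dye (Biomol Green) read at 650 nm. Concentration: 30 µM. Higher reads as stronger inhibition, judged from the few compounds that gave an IC50. Most strong results did not repeat in a second test. Of about 67,000 compounds tested this way, about 40 (0.06%) reached 50% or more in at least one test.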
PfKRS1: 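Lysine-tRNA ligase, Plasmodium falciparum 3D7 (UniProt Q8IDJ8). Enzyme assay of the cytosolic lysyl-tRNA synthetase in 384-well plates, read by luminescence. Compounds at 30 µM. Direction is inferred from only a few compounds that gave an IC50; most scored high, so higher reads as stronger inhibition. About 69,000 compounds were tested under these conditions; 0.071% (about 49) showed 50% or more at least once.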
MtTrpRS: 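Tryptophan-tRNA ligase, Mycobacterium tuberculosis (UniProt P9WFT3). Enzyme assay of tryptophanyl-tRNA synthetase; the read-out is not stated. Tested at 10 µM. Higher most likely means stronger inhibition; the record gives no direction and few retests gave an IC50. Size under these conditions: about 65,000 compounds, about 64 of them at 50% or above in at least one test.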

Each number is a percent effect as filed.
The record does not define 0% and 100%; most values in the screen are far below 50% and negative numbers occur (in some assays of this library far below -100).
This is an unselected part of the compounds tested.
A dash means the value is not listed here; it may have been measured.

| SMILES | LiHisRS | CoaBC | PfKRS1 | MtTrpRS |
|---|---|---|---|---|
| `COCC1COCCC12CCN(Cc1nccs1)CC2` (stereo unspecified) | 7.547% | 2.927% | 4.768% | - |
| `CCn1nc(C)c(CNC(=O)NCC(C)(O)c2ccccc2)c1C` (stereo unspecified) | 6.494% | -0.6329% | 3.727% | -4.751% |
| `CN1CCc2c(C#N)c(NCCN3CCOCC3)n3cnnc3c2C1` | 13.16% | 0.2532% | 4.44% | 3.613% |
| `CC(C)NC(=O)CSc1nc2c(cnn2CCO)c(=O)[nH]1` | 17.98% | -3.249% | -3.338% | 1.908% |
| `CC(C)(N)c1nc(C(F)F)cc(=O)[nH]1` | 15.62% | 15.84% | -1.774% | -1.312% |
| `NC(=O)N1CC[C@H](O)[C@@H]1Cc1cccnc1` | 3.008% | 4.627% | -2.177% | -1.831% |
| `Cn1c(=O)oc2cc(S(=O)(=O)N3CCCCC3)c(Cl)cc21` | -7.143% | -3.121% | 2.86% | 0.7897% |
| `O=C(c1ccccn1)N1CCC2(CCCN(c3nncs3)C2)C1` (stereo unspecified) | 26% | 1.724% | 5.421% | -7.277% |
| `Cc1cc(C)c(CNC(=O)NCc2ccc(F)cc2)c(=O)[nH]1` | 12.73% | 4.082% | 2.175% | -5.844% |
| `O=C1N[C@@H]2CCN(C(=O)C3CC3)[C@@H]2C(=O)N1c1ccccc1` | 22.22% | 10.16% | 5.002% | -2.033% |
| `CNC(=O)CCCNc1cc(C)nc2cc(C)nn12` | 28.57% | 16.63% | -1.253% | 6.885% |
| `Cc1nn(C)c(C)c1C1CCCN1Cc1nc(C2CC2)no1` (stereo unspecified) | 30.77% | 1.686% | -2.94% | 3.401% |
| `Cc1c(C2SCC(=O)Nc3c2c(O)nn3C2CCCC2)cnn1C` (stereo unspecified) | 15.79% | 4.557% | 4.83% | 2.658% |
| `Cc1cc(C)n(CC2CCCCN2C(=O)CCc2ccncc2)n1` (stereo unspecified) | 1.786% | 6.21% | -0.6903% | -5.21% |
| `O=C(NCc1cccnc1)C1=NOC2(CCN(S(=O)(=O)C3CC3)C2)C1` (stereo unspecified) | 11.32% | 0.6345% | -1.139% | 6.821% |
| `O=S(=O)(Cc1ccccc1Cl)NCCCN1CCCC1` | 15.15% | -37.3% | -2.383% | -3.431% |
| `O=C(NCCO)Nc1cnc2cc(Cl)ccc2c1O` | 13.54% | -0.4902% | 3.102% | - |
| `Cc1cc(C)n(CC2CCCN2C(=O)c2cn[nH]c2C)n1` (stereo unspecified) | 20.18% | 1.37% | 0.3597% | 2.516% |
| `Cc1nc(C2CCCN(C(=O)CCn3ccccc3=O)C2)no1` (stereo unspecified) | 10.91% | 3.827% | -0.8172% | -5.136% |
| `Cc1nc[nH]c1-c1nnc(SCC(=O)O)n1-c1ccccc1C(F)(F)F` | 19.67% | -2.558% | 2.479% | 1.417% |
| `CCn1nc(C)c2c1cnn2CCNS(=O)(=O)c1ccccc1` | 16.05% | 3.827% | 2.038% | -1.018% |
| `COc1cccc(CC(=O)N2CC[C@@H](OC)[C@@H]2Cc2cccnc2)c1` | 7.692% | 3.515% | 4.927% | - |
| `Cc1ccc(CN2CCCC3(CCN(S(C)(=O)=O)C3)C2)o1` (stereo unspecified) | 10.95% | -10.62% | 2.109% | -1.41% |
| `COCCNc1ncc(-c2cccc(OC)c2)c(-c2nccn2C)n1` | -2.857% | 2.913% | -0.4695% | -1.198% |
| `Cc1cc(=O)n2nc(Oc3cccc(C(N)=O)c3)sc2n1` | 22.89% | 7.654% | 1.498% | 3.366% |
| `O=C(c1ccoc1)N1CC[C@@H]2[C@H]1CCC(=O)N2c1ccccc1` | 13.87% | 9.585% | 0.6077% | -0.7049% |
| `O=S(=O)(N1CCOCC1)N1CCCCC1CCc1ccc(O)cc1` (stereo unspecified) | 26.03% | -11.58% | 8.662% | 2.008% |
| `CC(=O)OC1CN(c2nc3c(C(F)(F)F)cccc3s2)C1` | 14.63% | 2.926% | 1.165% | 1.188% |
| `O=C(Nc1ccccn1)C1(n2cnnn2)CCCCC1` | 10.53% | 4.304% | 5.584% | 2.795% |
| `CCOc1ccc(CC(=O)N2CCN(c3nccn3CC)CC2)cc1` | 10.96% | 9.881% | 0.2452% | 2.545% |
| `O=C(O)c1ccc(S(=O)(=O)Nc2ccccc2F)c(F)c1` | 12.82% | -3.421% | 4.776% | -5.866% |
| `COc1ccccc1C(=O)NCCCN1CCCC1C(=O)N(C)C` (stereo unspecified) | 22.89% | 0.8861% | 5.119% | 0.5439% |
| `CCn1nc(C)c(CCNC(=O)C2CCCN(C(C)=O)C2)c1C` (stereo unspecified) | 12.94% | -0.5076% | 10.22% | -0.1937% |
| `CC1CN(C)CCN1C(=O)c1ccn(-c2ccccc2Cl)n1` (stereo unspecified) | 12.17% | 1.935% | -1.462% | 7.887% |
| `Cc1cc2c(c(-c3cnccn3)c1)OC(CN)C2` (stereo unspecified) | 16.44% | 3.182% | 0.5785% | -0.7435% |
| `CCC(=O)N(C)C1CCN(Cc2ncc(C)c(OC)c2C)CC1` | 10.96% | 2.651% | 5.159% | 0.07994% |
| `CCN(CC(=O)NC(C)C)S(=O)(=O)N1CCCC(C)C1` (stereo unspecified) | 24.24% | 5.325% | -1.656% | 1.016% |
| `COc1cccc2c1OCC(C(=O)N1CCC(N3CCOC3=O)CC1)C2` (stereo unspecified) | 19.05% | 12.28% | -0.6661% | 0.5848% |
| `O=C(c1ccno1)N1CCO[C@]2(CCC[C@@H]2COCc2ccncc2)C1` | 17.14% | 0.9772% | 7.63% | 0.4882% |
| `CN(C)S(=O)(=O)NCC(Cc1cccc(F)c1)N1CCNC1=O` (stereo unspecified) | 23.08% | 1.781% | 3.2% | 5.425% |
| `Cc1cc(C(=O)N2CCc3nnc(N)cc3C2)c(C)n1C1CC1` | 24.32% | 0% | -2.153% | -0.09747% |
| `CC(C)n1ccnc1CN1CCCN(C(=O)COC2CCCC2)CC1` | 8.108% | 2.35% | 3.678% | -0.2924% |
| `CCN1CC2(CCN(C(=O)C(C)Oc3ccc(F)cc3Cl)CC2)CC1=O` (stereo unspecified) | 13.33% | 6.098% | -2.433% | 16.98% |
| `CN(Cc1cccs1)C(=O)CN1C(=O)c2cc(Cl)c(Cl)cc2C1=O` | -13.04% | 1.337% | 7.563% | 0.1608% |
| `CCn1cc(S(=O)(=O)NC(CO)Cc2c[nH]c3ccccc23)cn1` (stereo unspecified) | 5.714% | - | 0.3736% | -4.438% |
| `CCn1c(Cn2cncn2)nnc1C1CCN(Cc2ccccn2)CC1` | 7.692% | -0.2545% | -1.9% | 3.203% |
| `Cc1cnc(N2C[C@H]3CN(Cc4csc(C)n4)C(=O)[C@H]3C2)nc1` | 23.08% | 10.83% | 0.2937% | -4.02% |
| `CSc1cccc(CN(C)C(=O)c2cccc(C3CCCNC3)c2)c1` (stereo unspecified) | 11.48% | -36.15% | 6.323% | -2.093% |
| `C[C@@H]1CN(Cc2ccsc2)C[C@]12CCN(Cc1cccnc1)C2=O` | 0% | -1.209% | -5.196% | 0.9924% |
| `Cc1cc(C(=O)NCC(c2ccccc2Cl)N2CCOCC2)on1` (stereo unspecified) | 20.55% | -2.564% | 7.338% | -0.2646% |

Repeated from the top, 3 entries:

SMILES	LiHisRS	CoaBC	PfKRS1	MtTrpRS
COCC1COCCC12CCN(Cc1nccs1)CC2 (stereo unspecified)	7.547%	2.927%	4.768%	-
CCn1nc(C)c(CNC(=O)NCC(C)(O)c2ccccc2)c1C (stereo unspecified)	6.494%	-0.6329%	3.727%	-4.751%
CN1CCc2c(C#N)c(NCCN3CCOCC3)n3cnnc3c2C1	13.16%	0.2532%	4.44%	3.613%